# The supplement of paper PMC8728848
# The list shows a part of the results.
# B1: GS7807F-bth-514-18-514 (Bacteroides thetaiotaomicron) (protein)
# chain: AGSCTGNFEEYNTNQFQIHEADPSTLMKSMIETIVNIQQNDSQMMDQMVGQLGGYLTCANVWSGTNFGTFNQSDAWNAGPWNTNFEKIYGNFFQIQEATNESGHYYAFARMIRAITMLRVADCYGPMPYSQVKKGNFYVAYDTEEQVYKNIMEDFASAANVLYNYYKDTNGNAPLASNDPVFSGNYANWARLANSMRLRVAIRISTAYPEMAKENAEAAASHEAGLIEANNDNAMMDCGSQTNPYQLAAVSWGDLRVNANIVDYMNGYGDPRMSKYFNHSTFTGHTQEYVGMRSGEDGFAKSDVAGYSIPAITGTSKLLVFCAAETAFLRAEGKLKNWSVGNKSAKEYYEEGIKLSMEQYGTTMPDNYLTNTEKPTVSHNNDPRGHAYTISNTVAVAWNDNNEEENLQRIITQKWIANYPLGLEAWAEYRRTGYPELYPCIDNLSPSGVDSKRGMRRLRFPYTEVQNNHSNYQQGVSYLKNGGPDNEATDLSWGKTN
# How the values were obtained:
# Experiment in all cases: glycan array binding signal (z-score within array); higher = stronger binding
# Conditions in all cases: glycan notation: IUPAC condensed, linker removed
# [1] = target: GlcNAc(b1-3)Gal(b1-4)GlcNAc(b1-3)Gal(b1-4)GlcNAc(b1-3)GalNAc
# Outline: (§1)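 Arrays were curated from the Consortium for Functional Glycomics database, 3228 in total, and kept only where the protein sequence was available. Binding is expressed as a within-array Z-score. This score was averaged across arrays of the same protein sequence at different concentrations or buffers and across linkers, and negative values can be read as non-binding.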
# [2] = target: GlcNAc(b1-3)Gal(b1-4)GlcNAc(b1-3)GalNAc
# Outline: as §1
# [3] = target: GlcNAc(b1-3)Gal(b1-4)GlcNAc(b1-3)[GlcNAc(b1-3)Gal(b1-4)GlcNAc(b1-3)]GalNAc
# Outline: as §1
# [4] = target: GlcNAc(b1-3)Gal(b1-4)GlcNAc(b1-6)[Gal(b1-3)]GalNAc
# Outline: as §1
# [5] = target: GlcNAc(b1-3)Gal(b1-4)GlcNAc(b1-6)[GlcNAc(b1-3)Gal(b1-3)]GalNAc
# Outline: as §1
# [6] = target: GlcNAc(b1-3)Gal(b1-4)GlcNAc(b1-6)[GlcNAc(b1-3)]Gal(b1-4)GlcNAc
# Outline: as §1
# [7] = target: GlcNAc(b1-3)GalNAc
# Outline: as §1
# [8] = target: GlcNAc(b1-3)Man
# Outline: as §1
# [9] = target: GlcNAc(b1-3)[GlcNAc(b1-4)][GlcNAc(b1-6)]GlcNAc
# Outline: as §1
# [10] = target: GlcNAc(b1-3)[GlcNAc(b1-6)]Gal(b1-4)GlcNAc
# Outline: as §1
# [11] = target: GlcNAc(b1-3)[GlcNAc(b1-6)]GalNAc
# Outline: as §1
# [12] = target: GlcNAc(b1-4)Gal(b1-4)GlcNAc
# Outline: as §1
# [13] = target: GlcNAc(b1-4)GlcNAc
# Outline: as §1
# [14] = target: GlcNAc(b1-4)GlcNAc(b1-4)GlcNAc
# Outline: as §1
# [15] = target: GlcNAc(b1-4)GlcNAc(b1-4)GlcNAc(b1-4)GlcNAc(b1-4)GlcNAc
# Outline: as §1
# [16] = target: GlcNAc(b1-4)GlcNAc(b1-4)GlcNAc(b1-4)GlcNAc(b1-4)GlcNAc(b1-4)GlcNAc
# Outline: as §1
# [17] = target: GlcNAc(b1-4)[GlcNAc(b1-6)]GalNAc
# Outline: as §1
# [18] = target: GlcNAc(b1-6)Gal(b1-4)GlcNAc
# Outline: as §1
# [19] = target: GlcNAc(b1-6)GalNAc
# Outline: as §1
# [20] = target: GlcNAc6S(b1-3)Gal(b1-4)GlcNAc
# Outline: as §1
# [21] = target: Kdn(a2-3)Gal(b1-3)GalNAc
# Outline: as §1
# [22] = target: Kdn(a2-3)Gal(b1-3)GlcNAc
# Outline: as §1
# [23] = target: Kdn(a2-3)Gal(b1-4)Glc
# Outline: as §1
# [24] = target: Kdn(a2-3)Gal(b1-4)GlcNAc
# Outline: as §1
# [25] = target: Kdn(a2-3)Gal(b1-4)[Fuc(a1-3)]GlcNAc
# Outline: as §1
# [26] = target: Kdn(a2-6)Gal(b1-4)GlcNAc
# Outline: as §1
# [27] = target: Man(a1-2)Man(a1-2)Man(a1-3)Man
# Outline: as §1
# [28] = target: Man(a1-2)Man(a1-2)Man(a1-6)[Man(a1-3)]Man
# Outline: as §1
# [29] = target: Man(a1-2)Man(a1-3)Man
# Outline: as §1
# [30] = target: Man(a1-2)Man(a1-3)[Man(a1-2)Man(a1-6)]Man
# Outline: as §1
# [31] = target: Man(a1-2)Man(a1-3)[Man(a1-2)Man(a1-6)]Man(a1-6)[Man(a1-2)Man(a1-2)Man(a1-3)]Man
# Outline: as §1
# [32] = target: Man(a1-2)Man(a1-3)[Man(a1-2)Man(a1-6)]Man(a1-6)[Man(a1-2)Man(a1-2)Man(a1-3)]Man(b1-4)GlcNAc(b1-4)GlcNAc
# Outline: as §1
# [33] = target: Man(a1-2)Man(a1-3)[Man(a1-6)]Man(a1-6)[Man(a1-2)Man(a1-3)]Man(b1-4)GlcNAc(b1-4)GlcNAc
# Outline: as §1
# [34] = target: Man(a1-2)Man(a1-6)[Man(a1-3)]Man(a1-6)[Man(a1-2)Man(a1-2)Man(a1-3)]Man
# Outline: as §1
# [35] = target: Man(a1-2)Man(a1-6)[Man(a1-3)]Man(a1-6)[Man(a1-2)Man(a1-2)Man(a1-3)]Man(b1-4)GlcNAc(b1-4)GlcNAc
# Outline: as §1
# [36] = target: Man(a1-3)[Man(a1-6)]Man
# Outline: as §1
# [37] = target: Man(a1-3)[Man(a1-6)]Man(a1-6)[Man(a1-2)Man(a1-3)]Man(b1-4)GlcNAc(b1-4)GlcNAc
# Outline: as §1
binder,measurement,setting,value
B1,glycan array binding signal (z-score),[1],-0.852
same,glycan array binding signal (z-score),[2],-0.092
same,glycan array binding signal (z-score),[3],1.28
same,glycan array binding signal (z-score),[4],-0.628
same,glycan array binding signal (z-score),[5],-0.759
same,glycan array binding signal (z-score),[6],-0.91
same,glycan array binding signal (z-score),[7],-0.702
same,glycan array binding signal (z-score),[8],1.14
same,glycan array binding signal (z-score),[9],-0.699
same,glycan array binding signal (z-score),[10],0.14
same,glycan array binding signal (z-score),[11],-0.77
same,glycan array binding signal (z-score),[12],-0.66
same,glycan array binding signal (z-score),[13],-0.812
same,glycan array binding signal (z-score),[14],-0.869
same,glycan array binding signal (z-score),[15],-0.732
same,glycan array binding signal (z-score),[16],-0.84
same,glycan array binding signal (z-score),[17],-0.75
same,glycan array binding signal (z-score),[18],0.45
same,glycan array binding signal (z-score),[19],-0.029
same,glycan array binding signal (z-score),[20],1.06
same,glycan array binding signal (z-score),[21],0.428
same,glycan array binding signal (z-score),[22],1.03
same,glycan array binding signal (z-score),[23],-0.854
same,glycan array binding signal (z-score),[24],-0.733
same,glycan array binding signal (z-score),[25],-0.311
same,glycan array binding signal (z-score),[26],0.077
same,glycan array binding signal (z-score),[27],-0.911
same,glycan array binding signal (z-score),[28],-0.819
same,glycan array binding signal (z-score),[29],-0.821
same,glycan array binding signal (z-score),[30],-0.919
same,glycan array binding signal (z-score),[31],-0.77
same,glycan array binding signal (z-score),[32],-0.524
same,glycan array binding signal (z-score),[33],-0.618
same,glycan array binding signal (z-score),[34],-0.861
same,glycan array binding signal (z-score),[35],0.65
same,glycan array binding signal (z-score),[36],-0.77
same,glycan array binding signal (z-score),[37],2.84

# Two entries drawn at random from those above:
binder,measurement,setting,value
B1,glycan array binding signal (z-score),[6],-0.91
same,glycan array binding signal (z-score),[29],-0.821
